Results deposited as PubChem BioAssay AID1224829 (NIAID, 2016)

- Test: 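Follow-up of TLR4-NF-kappaB regulators using six separate siRNAs for each gene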 (follow-up of hits)
- Cell system: mouse RAW264.7 G9 macrophage reporter cells
- Reagent: single siRNA against mouse genes, 100 nM
- Duration: 2 days of siRNA knock-down, then 40 min of LPS before fixing
- Conditions: LPS (Salmonella minnesota R595) at 10 ng/ml
- Detection: 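Imaging of GFP-p65 after 40 min of LPS; nuclear over perinuclear ring intensity ratio, scaled to plate median and non-targeting control wells, given as z-score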
- Direction: p65 translocation z-score: higher = more nuclear NF-kappaB p65 after LPS
- Hit rule: 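Active means the replicate-mean z-score lies beyond plus or minus 2, in either direction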
- Calls: active = changed p65 translocation (either direction); inactive = no clear change
In all, the deposit lists about 3,800 reagents; below is a part drawn at random. 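Calls cover raised and lowered translocation; gene median uses one vendor's three siRNAs; qiagen siRNAs acted more weakly than ambion siRNAs.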 A number with no mark means an inactive call. Reagents against one gene are numbered here. Not all columns of the deposit are shown.

The opening 2 records, ahead of the listing:
{"target gene":"Csf1 (GeneID 12977)","reagent no.":1,"siRNA vendor or control pool":"ambion single siRNA","p65 translocation z-score, replicate mean":0.87}
{"target gene":"Csf1 (GeneID 12977)","reagent no.":2,"siRNA vendor or control pool":"ambion single siRNA","p65 translocation z-score, replicate mean":"-2.5 (active)"}

The listing, from the first entry:
{"target gene":"Csf1 (GeneID 12977)","reagent no.":1,"siRNA vendor or control pool":"ambion single siRNA","p65 translocation z-score, replicate mean":0.87}
{"target gene":"Csf1 (GeneID 12977)","reagent no.":2,"siRNA vendor or control pool":"ambion single siRNA","p65 translocation z-score, replicate mean":"-2.5 (active)"}
{"target gene":"Csf1 (GeneID 12977)","reagent no.":3,"siRNA vendor or control pool":"ambion single siRNA","p65 translocation z-score, replicate mean":"-2.98 (active)"}
{"target gene":"Csf1 (GeneID 12977)","reagent no.":4,"siRNA vendor or control pool":"qiagen single siRNA","p65 translocation z-score, replicate mean":-0.16}
{"target gene":"Csf1 (GeneID 12977)","reagent no.":5,"siRNA vendor or control pool":"qiagen single siRNA","p65 translocation z-score, replicate mean":-1.18}
{"target gene":"Csf1 (GeneID 12977)","reagent no.":6,"siRNA vendor or control pool":"qiagen single siRNA","p65 translocation z-score, replicate mean":-1.05}
{"target gene":"Il24 (GeneID 93672)","reagent no.":1,"siRNA vendor or control pool":"ambion single siRNA","p65 translocation z-score, replicate mean":1.56}
{"target gene":"Il24 (GeneID 93672)","reagent no.":2,"siRNA vendor or control pool":"ambion single siRNA","p65 translocation z-score, replicate mean":"-3.65 (active)"}
{"target gene":"Il24 (GeneID 93672)","reagent no.":3,"siRNA vendor or control pool":"ambion single siRNA","p65 translocation z-score, replicate mean":"-2.53 (active)"}
{"target gene":"Il24 (GeneID 93672)","reagent no.":4,"siRNA vendor or control pool":"qiagen single siRNA","p65 translocation z-score, replicate mean":-1.01}
{"target gene":"Il24 (GeneID 93672)","reagent no.":5,"siRNA vendor or control pool":"qiagen single siRNA","p65 translocation z-score, replicate mean":0.69}
{"target gene":"Il24 (GeneID 93672)","reagent no.":6,"siRNA vendor or control pool":"qiagen single siRNA","p65 translocation z-score, replicate mean":"3.05 (active)"}
{"target gene":"Slc5a7 (GeneID 63993)","reagent no.":1,"siRNA vendor or control pool":"ambion single siRNA","p65 translocation z-score, replicate mean":0.336}
{"target gene":"Slc5a7 (GeneID 63993)","reagent no.":2,"siRNA vendor or control pool":"ambion single siRNA","p65 translocation z-score, replicate mean":"-5.75 (active)"}
{"target gene":"Slc5a7 (GeneID 63993)","reagent no.":3,"siRNA vendor or control pool":"ambion single siRNA","p65 translocation z-score, replicate mean":"-2.83 (active)"}
{"target gene":"Slc5a7 (GeneID 63993)","reagent no.":4,"siRNA vendor or control pool":"qiagen single siRNA","p65 translocation z-score, replicate mean":"2.81 (active)"}
{"target gene":"Slc5a7 (GeneID 63993)","reagent no.":5,"siRNA vendor or control pool":"qiagen single siRNA","p65 translocation z-score, replicate mean":0.896}
{"target gene":"Slc5a7 (GeneID 63993)","reagent no.":6,"siRNA vendor or control pool":"qiagen single siRNA","p65 translocation z-score, replicate mean":"-2.81 (active)"}
{"target gene":"Psme3 (GeneID 19192)","reagent no.":1,"siRNA vendor or control pool":"ambion single siRNA","p65 translocation z-score, replicate mean":0.82}
{"target gene":"Psme3 (GeneID 19192)","reagent no.":2,"siRNA vendor or control pool":"ambion single siRNA","p65 translocation z-score, replicate mean":-1.31}
{"target gene":"Psme3 (GeneID 19192)","reagent no.":3,"siRNA vendor or control pool":"ambion single siRNA","p65 translocation z-score, replicate mean":"-3.49 (active)"}
{"target gene":"Psme3 (GeneID 19192)","reagent no.":4,"siRNA vendor or control pool":"qiagen single siRNA","p65 translocation z-score, replicate mean":1.37}
{"target gene":"Psme3 (GeneID 19192)","reagent no.":5,"siRNA vendor or control pool":"qiagen single siRNA","p65 translocation z-score, replicate mean":0.216}
{"target gene":"Psme3 (GeneID 19192)","reagent no.":6,"siRNA vendor or control pool":"qiagen single siRNA","p65 translocation z-score, replicate mean":0.726}
{"target gene":"Gpr26 (GeneID 233919)","reagent no.":1,"siRNA vendor or control pool":"ambion single siRNA","p65 translocation z-score, replicate mean":1.56}
{"target gene":"Gpr26 (GeneID 233919)","reagent no.":2,"siRNA vendor or control pool":"ambion single siRNA","p65 translocation z-score, replicate mean":-1.76}
{"target gene":"Gpr26 (GeneID 233919)","reagent no.":3,"siRNA vendor or control pool":"ambion single siRNA","p65 translocation z-score, replicate mean":-1.86}
{"target gene":"Gpr26 (GeneID 233919)","reagent no.":4,"siRNA vendor or control pool":"qiagen single siRNA","p65 translocation z-score, replicate mean":-1.43}
{"target gene":"Gpr26 (GeneID 233919)","reagent no.":5,"siRNA vendor or control pool":"qiagen single siRNA","p65 translocation z-score, replicate mean":-1.55}
{"target gene":"Gpr26 (GeneID 233919)","reagent no.":6,"siRNA vendor or control pool":"qiagen single siRNA","p65 translocation z-score, replicate mean":"-2.78 (active)"}
